Measurements published in PubChem BioAssay AID493014 (National Center for Advancing Translational Sciences (NCATS), 2011).
Among all 340,000 compounds or so, about 170 (0.05%) were called active. Inconclusive means that the source gave no clear call. Such entries were picked first, then a sample of the others. The call rests on the fitted dose curve; in most records, active means well fitted inhibition curve with a large enough effect in the signal ratio, with a control signal flat (not every such curve was filed as active); inconclusive means small, poorly fitted or top-dose-only effect, or effect the other way, or a change in a side signal; inactive means flat fitted curve, though single readings scatter; the % refers to the signal ratio. Potencies of inconclusive entries are doubtful fits and often do not repeat.

Assay: qHTS Assay to Find Inhibitors of Chronic Active B-Cell Receptor Signaling;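 on activity change, negative = inhibition: plate controls were basal doxycycline-induced cells for no effect and cells given 10 µM MG132 for full effect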
Details: ABC-DLBCL IkBa-CBG/CBR reporter, luminescence ratio (green luciferase fused to IkBa over red control in TMD8 lymphoma cells), 4 h; activity change, negative = inhibition: at 46.1 µM (top of the series) unless noted
In short: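 Concentration-response series (up to 46 uM) were applied to TMD8 dual-reporter cells for 4 h at 37C with doxycycline. Green/red ratio, after filter-overlap correction, defined %Activity; red signal alone was normalised to basal cells and zero luminescence.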
Potency means the concentration at half of the fitted maximal effect.

Row | SMILES | activity change, negative = inhibition | Potency
1 | COC(=O)c1ccc(CSc2nnc(Nc3cccc(OC)c3)s2)o1 | inconclusive: -1.1% | –
2 | CCN(CC)c1ccc(/C=N\N2CCN(Cc3ccc(C)cc3)CC2)cc1 | inactive: -8.34% | –
3 | Cc1nnc(NC(=O)c2oc3c(ccc4ccccc43)c2C)s1 | – | inconclusive: 1.26 µM [rising, partial curve]
4 | Cc1nnsc1SC(C)C(=O)O (stereo not drawn) | inactive: -7.75% | –
5 | COc1ccc(-c2nn(-c3ccccc3)cc2/C=N/O)cc1 | inconclusive: 0.922% | –
6 | O=C(NCc1ccco1)c1cnn2c(C(F)(F)F)cc(-c3ccccc3)nc12 | inactive: 15.8% | –
7 | CC(=O)NC12CC3CC(C1)CC(C(=O)Nc1nc4ccc(F)cc4s1)(C3)C2 | inconclusive: -2.43% | –
8 | COc1ccc(C(=O)NCC(=O)OCC(=O)Nc2sccc2C#N)cc1OC | inconclusive: 3.4% | –
9 | COc1ccc(CCN2C(=O)CSC2=Nc2ccc(C)cc2C)cc1OC | inconclusive: -1.49% | –
10 | O=C(CS(=O)(=O)Cc1ccccc1)Nc1nnc(C2CCCCC2)s1 | inconclusive: 10.4% | –
11 | O=S(=O)(c1ccc2ccccc2c1)N(CC1CO1)c1ccccc1 (stereo not drawn) | – | inconclusive: 11.2 µM [falling, partial curve, poor fit]
12 | COC(=O)c1ccc(OS(=O)(=O)N(C)C)cc1 | inconclusive: 5.88% | –
13 | CC1CCCC(C)N1C(=O)CSc1nnc(C2CCCCC2)o1 (stereo not drawn) | inconclusive: -0.263% | –
14 | Cc1ccc(-c2onc3ccc(C4(C)OCCO4)cc23)cc1 | inconclusive: -8.01% | –
15 | COc1ccccc1CN1CCNC(=O)C1CC(=O)N(C)CC1CCOCC1 (stereo not drawn) | inconclusive: 11.2% | –
16 | O=C(c1ccc2c(c1)N(Cc1ccccc1F)C(=O)c1ccccc1S2(=O)=O)N1CCCC1 | inactive: -0.63% | –
17 | COC(=O)c1ccccc1NC(=O)COC(=O)C1CCCCC1 | inconclusive: 3.72% | –
18 | O=C(NCc1ccccn1)c1ccc(-c2ccccc2)cc1 | inconclusive: 14.7% | –
19 | COc1ccc(NC(=O)CN(C)C(=O)c2cc(-c3cccs3)nn2-c2ccccc2)cc1 | inactive: -0.237% | –
20 | CC1(C)SC(=S)N(NC(=O)Nc2cccc3ccccc23)C1N(O)C(=O)Nc1ccccc1 (stereo not drawn) | inconclusive: 0.862% | –
21 | COc1ccc2[nH]c(C(=O)N/N=C/c3ccc(O)cc3O)cc2c1 | – | inconclusive: 20 µM [falling, single point]
22 | C/C(=N\NC(=O)c1cccc(S(=O)(=O)Nc2cccc(Cl)c2)c1)c1cccs1 | – | inconclusive: 16.4 µM [rising, partial curve, poor fit]
23 | CC(C)Cc1csc(NC(=O)c2ccc(F)cc2)c1C(=O)O | – | inconclusive: 0.58 µM [falling, partial curve, poor fit]

Some of the entries so far, field by field.
COc1ccc(-c2nn(-c3ccccc3)cc2/C=N/O)cc1
  activity change, negative = inhibition: inconclusive: 0.922%
O=C(NCc1ccco1)c1cnn2c(C(F)(F)F)cc(-c3ccccc3)nc12
  activity change, negative = inhibition: inactive: 15.8%
